From the supplement of paper PMC6411743
± gives the standard deviation of the averaged measurements. The list shows a part of the results.

Sequences of proteins named here, by UniProt entry; tags and fusion partners are left off. A change or cut given only in a name is not applied to a line headed by its entry.
UniProt O43615: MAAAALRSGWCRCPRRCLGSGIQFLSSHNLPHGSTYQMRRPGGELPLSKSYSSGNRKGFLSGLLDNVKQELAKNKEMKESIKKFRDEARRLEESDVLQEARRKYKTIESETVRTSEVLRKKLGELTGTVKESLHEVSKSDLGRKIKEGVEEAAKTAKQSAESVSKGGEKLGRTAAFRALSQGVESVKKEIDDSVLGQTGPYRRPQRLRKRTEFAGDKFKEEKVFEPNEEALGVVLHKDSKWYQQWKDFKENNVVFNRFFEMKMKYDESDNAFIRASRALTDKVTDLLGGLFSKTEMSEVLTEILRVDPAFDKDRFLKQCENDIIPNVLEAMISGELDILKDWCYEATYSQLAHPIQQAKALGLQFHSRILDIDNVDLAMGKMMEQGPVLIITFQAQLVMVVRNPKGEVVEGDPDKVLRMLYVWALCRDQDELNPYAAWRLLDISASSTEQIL
UniProt O15270: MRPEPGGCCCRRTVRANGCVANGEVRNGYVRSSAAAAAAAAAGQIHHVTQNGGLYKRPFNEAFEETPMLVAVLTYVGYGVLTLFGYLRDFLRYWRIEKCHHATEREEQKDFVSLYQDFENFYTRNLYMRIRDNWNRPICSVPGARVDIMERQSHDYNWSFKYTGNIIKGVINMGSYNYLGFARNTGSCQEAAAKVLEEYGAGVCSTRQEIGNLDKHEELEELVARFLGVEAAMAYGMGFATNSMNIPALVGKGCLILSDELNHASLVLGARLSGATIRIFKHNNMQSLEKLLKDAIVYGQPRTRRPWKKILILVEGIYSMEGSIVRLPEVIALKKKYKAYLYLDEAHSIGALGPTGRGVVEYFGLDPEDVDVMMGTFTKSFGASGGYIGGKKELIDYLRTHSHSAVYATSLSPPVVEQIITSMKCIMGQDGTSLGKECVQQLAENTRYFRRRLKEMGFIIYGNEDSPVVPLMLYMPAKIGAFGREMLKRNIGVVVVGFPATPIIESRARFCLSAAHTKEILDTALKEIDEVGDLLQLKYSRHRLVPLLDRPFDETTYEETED
UniProt O00567: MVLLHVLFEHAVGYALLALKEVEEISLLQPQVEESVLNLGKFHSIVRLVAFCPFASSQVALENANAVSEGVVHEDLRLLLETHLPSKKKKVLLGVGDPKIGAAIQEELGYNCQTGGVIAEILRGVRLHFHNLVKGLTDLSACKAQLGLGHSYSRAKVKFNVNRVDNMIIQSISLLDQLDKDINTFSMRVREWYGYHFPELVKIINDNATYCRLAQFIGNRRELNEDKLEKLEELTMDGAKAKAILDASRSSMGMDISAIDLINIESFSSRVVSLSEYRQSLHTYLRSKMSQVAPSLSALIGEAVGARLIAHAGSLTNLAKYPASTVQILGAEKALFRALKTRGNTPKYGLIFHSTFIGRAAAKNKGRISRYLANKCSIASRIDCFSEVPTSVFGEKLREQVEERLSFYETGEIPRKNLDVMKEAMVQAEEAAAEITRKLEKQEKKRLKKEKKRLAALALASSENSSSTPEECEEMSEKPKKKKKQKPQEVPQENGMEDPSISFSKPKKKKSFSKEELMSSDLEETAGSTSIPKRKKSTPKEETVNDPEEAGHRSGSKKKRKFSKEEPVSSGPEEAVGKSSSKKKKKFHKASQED
UniProt O43252: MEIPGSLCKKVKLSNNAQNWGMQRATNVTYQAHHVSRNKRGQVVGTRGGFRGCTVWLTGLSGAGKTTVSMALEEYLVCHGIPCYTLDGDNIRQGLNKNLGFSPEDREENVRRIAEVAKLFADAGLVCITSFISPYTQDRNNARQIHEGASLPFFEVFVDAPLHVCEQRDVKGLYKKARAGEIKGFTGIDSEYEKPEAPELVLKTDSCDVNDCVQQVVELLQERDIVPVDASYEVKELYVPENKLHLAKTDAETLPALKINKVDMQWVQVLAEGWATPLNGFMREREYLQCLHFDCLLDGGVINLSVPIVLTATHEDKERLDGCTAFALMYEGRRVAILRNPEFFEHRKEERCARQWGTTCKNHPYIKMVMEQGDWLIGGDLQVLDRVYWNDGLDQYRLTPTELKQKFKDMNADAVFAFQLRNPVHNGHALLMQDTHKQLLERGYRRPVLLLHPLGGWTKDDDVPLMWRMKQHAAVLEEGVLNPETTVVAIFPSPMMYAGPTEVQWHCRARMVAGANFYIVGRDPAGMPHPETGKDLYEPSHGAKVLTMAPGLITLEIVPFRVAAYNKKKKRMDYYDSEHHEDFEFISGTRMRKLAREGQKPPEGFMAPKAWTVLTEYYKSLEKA
UniProt Q8TBC3: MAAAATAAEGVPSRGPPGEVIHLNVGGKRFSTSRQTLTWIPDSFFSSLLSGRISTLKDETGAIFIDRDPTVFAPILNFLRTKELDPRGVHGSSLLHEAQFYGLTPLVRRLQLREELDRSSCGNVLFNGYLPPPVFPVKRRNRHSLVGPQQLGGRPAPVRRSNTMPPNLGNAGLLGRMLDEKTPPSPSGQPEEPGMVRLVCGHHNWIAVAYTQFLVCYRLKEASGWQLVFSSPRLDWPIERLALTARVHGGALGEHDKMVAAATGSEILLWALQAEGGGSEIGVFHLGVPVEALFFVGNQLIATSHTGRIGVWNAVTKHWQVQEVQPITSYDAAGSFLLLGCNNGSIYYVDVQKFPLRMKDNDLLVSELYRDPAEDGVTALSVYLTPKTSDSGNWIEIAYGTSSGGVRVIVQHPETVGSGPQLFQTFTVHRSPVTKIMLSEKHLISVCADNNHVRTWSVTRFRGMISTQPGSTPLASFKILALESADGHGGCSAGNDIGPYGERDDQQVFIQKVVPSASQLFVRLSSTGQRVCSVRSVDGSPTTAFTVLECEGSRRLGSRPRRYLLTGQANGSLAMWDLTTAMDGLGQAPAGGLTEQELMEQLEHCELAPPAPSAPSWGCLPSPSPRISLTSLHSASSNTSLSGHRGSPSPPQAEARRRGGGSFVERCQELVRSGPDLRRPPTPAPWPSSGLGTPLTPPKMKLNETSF
UniProt O15116: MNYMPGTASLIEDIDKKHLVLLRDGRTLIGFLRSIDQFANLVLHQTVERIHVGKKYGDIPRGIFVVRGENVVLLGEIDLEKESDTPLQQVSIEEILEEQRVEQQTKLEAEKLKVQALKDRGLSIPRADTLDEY

Compound: Nc1nc2c(ncn2[C@@H]2O[C@H](COP(=O)(O)OP(=O)(O)OP(=O)(O)O)[C@@H](O)[C@H]2O)c(=O)[nH]1 [guanosine triphosphate]
Assay: NP40-soluble protein abundance relative to vehicle (solubility fold change) (ratio); higher = more soluble protein in presence of GTP
Summary of the method: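 Across three independent experiments, values are fold changes against the detergent-processed vehicle for each replicate, based on vsn-normalised intensities. The samples were Jurkat crude lysate treated with eight concentrations (0.1 to 10 mM) for 10 min at room temperature and then 3 min at 37 °C. Lysate was solubilised with 0.8% NP40 and benzonase, ultracentrifuged, and the supernatant analysed by TMT-labelled LC-MS/MS.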

Row | Target | NP40-soluble protein abundance (concentration: 0.1mM) | NP40-soluble protein abundance (concentration: 0.5mM) | NP40-soluble protein abundance (concentration: 1mM) | NP40-soluble protein abundance (concentration: 2mM) | NP40-soluble protein abundance (concentration: 4mM) | NP40-soluble protein abundance (concentration: 6mM) | NP40-soluble protein abundance (concentration: 8mM) | NP40-soluble protein abundance (concentration: 10mM)
1 | TIMM44 (UniProt O43615) | 0.992 ± 0.035 | 0.989 ± 0.041 | 0.993 ± 0.057 | 0.946 ± 0.058 | 0.954 ± 0.09 | 0.914 ± 0.082 | 0.946 ± 0.058 | 0.93 ± 0.064
2 | SPTLC2 (UniProt O15270) | 1.06 ± 0.09 | 1.07 ± 0.079 | 0.967 ± 0.06 | 1.02 ± 0.14 | 0.999 ± 0.13 | 0.989 ± 0.097 | 0.929 ± 0.042 | 0.907 ± 0.05
3 | UniProt O00567 | 1.05 ± 0.035 | 1.03 ± 0.046 | 1.1 ± 0.087 | 1.23 ± 0.075 | 1.55 ± 0.12 | 1.75 ± 0.12 | 2.06 ± 0.14 | 2.48 ± 0.13
4 | PAPSS1 (UniProt O43252) | 1.04 ± 0.034 | 1.04 ± 0.059 | 0.982 ± 0.021 | 0.961 ± 0.046 | 0.963 ± 0.062 | 0.938 ± 0.034 | 0.946 ± 0.038 | 0.899 ± 0.054
5 | CBX4 (UniProt O00257) | 1.08 ± 0.044 | 1.08 ± 0.095 | 1.12 ± 0.046 | 1.13 ± 0.065 | 1.11 ± 0.086 | 1.28 ± 0.11 | 1.26 ± 0.13 | 1.38 ± 0.14
6 | M0R0S1 and related entries (UniProt Q8TBC3) | 0.889 ± 0.19 | 1.02 ± 0.013 | 1.07 ± 0.15 | 1.07 ± 0.086 | 1.14 ± 0.11 | 1.19 ± 0.11 | 1.24 ± 0.029 | 1.16 ± 0.12
7 | LSM1 (UniProt O15116) | 0.952 ± 0.033 | 0.908 ± 0.075 | 1.01 ± 0.017 | 1.05 ± 0.044 | 1.03 ± 0.055 | 1.01 ± 0.09 | 0.946 ± 0.096 | 1.09 ± 0.063
